Reference: the supplement of paper PMC7877785
± gives the uncertainty stated by the source. The uncertainty is large for many entries.

Test: self-splicing fitness, log relative to wild type (ln ratio); higher = more splicing; Tetrahymena group I intron in knt gene, E. coli kanamycin selection, DiMSum; sequences stand for … in CUCUCU…GGAGGGAAAAGUUAUCAGGCAUGCACCUGGUAGCUAGUCUUUAAACCAAUAGAUUGCAUCGGUUUAAAAGGCAAGACCGUCAAAUUGCGGGAAAGGGGUCAACAGCCGUUCAGUACCAAGUCUCAGGGGAAACUUUGAGAUGGCCUUGCAAAGGGUAUGGUAAUAAGCUGACGGACAUGGUCCUAACCACGCAGCCAAGUCCUAAGUCAACAGAUCUUCUGUUGAUAUGGAUGCAGUUCACAGACUAAAUGUCGGUCGGGGAAGAUGUAUUCUUCUCAUAAGAUAUAGUCGGACCUCUCCUUAAUGGGAGCUAGCGGAUGAAGUGAUGCAACACUGGAGCCGCUGGGAACUAAUUUGUAUGCGAAAGUAUAUUGAUUAGUUUUGGAGUACUCGUGGUCG
Procedure, shortened: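 Colonies from six replicate transformations of E. coli BL21(DE3) were pooled and amplicon-sequenced on an Illumina HiSeq 2500. The library placed an intron with all eight P1ex-region nucleotides randomised inside the knt kanamycin-resistance gene on pET-22b(+), and cells grew overnight at 37°C or 30°C on LB agar with or without 25 μg/mL kanamycin (plus 100 μg/mL carbenicillin, 50 μM IPTG, 0.2% rhamnose). Fitness is the DiMSum error-weighted combination of wild-type-normalised replicate fold changes, kanamycin versus none.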

Sequence | self-splicing fitness (ln) (30 °C) | self-splicing fitness (ln) (37 °C)
GGAGAGCAAUAUUACGCACC | -2.45 ± 0.64 | -2.29 ± 1.1
GGGAAGCAAUAUUACGAACC | -2.81 ± 1.1 | 
CCUCAGCAAUAUUACGGAUC | -3.69 ± 0.73 | 
GGUGAGCAAUAUUACGGGGC | -2.25 ± 0.56 | 
AUGGAGCAAUAUUACGCGCU | -2.21 ± 0.63 | -1.13 ± 1.2
UGUCAGCAAUAUUACGUGAA | -0.122 ± 0.068 | 0.427 ± 0.083
GAAGAGCAAUAUUACGCAAA | -3.66 ± 1 | 
AGAGAGCAAUAUUACGGAUG | -4.49 ± 1 | 
UGGAAGCAAUAUUACGCAUU |  | -4.04 ± 0.51
AGAGAGCAAUAUUACGGGAU | -2.33 ± 0.59 | 
CAGGAGCAAUAUUACGCAAC |  | -2.82 ± 0.52
CACUAGCAAUAUUACGUGCU | -3.69 ± 0.2 | -2.55 ± 0.15
UUUAAGCAAUAUUACGUAGC | -3.66 ± 1 | 
AUUGAGCAAUAUUACGCAUC | -3.86 ± 0.51 | -2.57 ± 0.62
GCGUAGCAAUAUUACGAAGG | -2.9 ± 0.6 | 
GAGGAGCAAUAUUACGUCCU |  | -1.18 ± 0.72
AUUCAGCAAUAUUACGCCGC | -3.28 ± 0.53 | -2.45 ± 0.75
CCUUAGCAAUAUUACGCCCC |  | -0.44 ± 1.4
CGAUAGCAAUAUUACGACCC |  | 0.108 ± 0.65
UGCGAGCAAUAUUACGAUAU | -5.04 ± 1 | 
GAAAAGCAAUAUUACGCACG | -0.543 ± 0.09 | -0.904 ± 0.12
GUUGAGCAAUAUUACGAGAA | -2.04 ± 0.82 | 
CGUGAGCAAUAUUACGAAGA |  | -2.53 ± 0.62
GGAGAGCAAUAUUACGUCUC |  | -1 ± 0.77

Sequence | self-splicing fitness (ln) (30 °C) | self-splicing fitness (ln) (37 °C)
UCGGAGCAAUAUUACGGAGU | -4.04 ± 1.1 | -2.44 ± 0.78
AGUGAGCAAUAUUACGGGGC | -4.81 ± 0.71 | 
UAGGAGCAAUAUUACGAUAC | -4.56 ± 0.32 | -1.86 ± 0.28
CGAAAGCAAUAUUACGCCGC | -2.67 ± 0.62 | 
CUGGAGCAAUAUUACGUUCA | -3.13 ± 0.61 | -3.2 ± 0.73
GAGGAGCAAUAUUACGUGAU | -4.28 ± 0.73 | 
CCCGAGCAAUAUUACGACUA |  | -3.08 ± 1.1
GCUGAGCAAUAUUACGCGUA | -3.7 ± 1 | 
UGCGAGCAAUAUUACGGUCC | -3.19 ± 0.82 | -1.21 ± 0.62
GCUGAGCAAUAUUACGAAUC | -1.15 ± 0.12 | -0.914 ± 0.17
CCUAAGCAAUAUUACGCCCU |  | -1.69 ± 1.2
AAGGAGCAAUAUUACGGCAA |  | -0.839 ± 0.74
GUUUAGCAAUAUUACGCCAG | -3.53 ± 0.78 | -1.36 ± 0.69
UUUAAGCAAUAUUACGCUUA | -4.05 ± 0.72 | 
AGCAAGCAAUAUUACGCAAC |  | -2.62 ± 0.54
GGAAAGCAAUAUUACGCCAG | -4.1 ± 0.74 | 
GCUUAGCAAUAUUACGUGCU | -2.78 ± 0.19 | -1.41 ± 0.18
CCGGAGCAAUAUUACGACCU |  | -2.03 ± 0.56
GUUGAGCAAUAUUACGGAAG | -3.26 ± 0.52 | -3.64 ± 0.73
UGUUAGCAAUAUUACGACGU | -0.716 ± 0.11 | -1.37 ± 0.1
CGGAAGCAAUAUUACGUUAC | -5.47 ± 0.58 | -2.57 ± 0.2
GGUAAGCAAUAUUACGAAAG |  | -3 ± 1.1
CUUUAGCAAUAUUACGCCAU | -3.57 ± 0.75 | -1.34 ± 0.87
GGAUAGCAAUAUUACGUUCC | -2.94 ± 0.69 | -0.595 ± 1.4

Sequence | self-splicing fitness (ln) (30 °C) | self-splicing fitness (ln) (37 °C)
AGACAGCAAUAUUACGUUCA | -0.336 ± 0.056 | -0.159 ± 0.086
UAAGAGCAAUAUUACGGUAG | -3.79 ± 0.52 | 
CAUAAGCAAUAUUACGGGCU | -3.81 ± 1 | 
CUUUAGCAAUAUUACGGAGC | -2.71 ± 0.66 | -3.91 ± 1
CAUGAGCAAUAUUACGCCAU |  | -2.19 ± 0.51
GCUGAGCAAUAUUACGGCGG |  | -2.26 ± 0.63
CUCUAGCAAUAUUACGUACC | -3.67 ± 0.6 | -3.88 ± 0.72
UUAGAGCAAUAUUACGGGAA | -2.25 ± 0.16 | -0.296 ± 0.16
AGGGAGCAAUAUUACGUAUC |  | -2 ± 0.52
UAAUAGCAAUAUUACGACAC |  | -1.33 ± 0.63
UGGGAGCAAUAUUACGGCAU | -3.97 ± 0.73 | 
GACGAGCAAUAUUACGAACG |  | -1.03 ± 0.93
AUUAAGCAAUAUUACGGGGU | -4.11 ± 0.24 | -2.83 ± 0.2
AAGGAGCAAUAUUACGUAUC | -4.66 ± 0.73 | 
ACGUAGCAAUAUUACGCCGU | -2.54 ± 0.78 | -0.939 ± 0.76
AGGGAGCAAUAUUACGAGAA | -2.83 ± 0.55 | -2.13 ± 0.65
GGGGAGCAAUAUUACGACUG |  | 0.0946 ± 0.83
AUCCAGCAAUAUUACGUCGG | -2.71 ± 0.089 | -2.43 ± 0.13
CUCUAGCAAUAUUACGUCGC | -4.79 ± 0.72 | 
UUAGAGCAAUAUUACGAUAC |  | -2.88 ± 1.1
UCUUAGCAAUAUUACGACUA | -3.03 ± 0.78 | 
GCGUAGCAAUAUUACGCCCG | -2.23 ± 0.58 | 
UUAGAGCAAUAUUACGAUCC |  | -2.32 ± 0.63
AAUUAGCAAUAUUACGUUCG | -1.16 ± 0.12 | -0.728 ± 0.18

Sequence | self-splicing fitness (ln) (30 °C) | self-splicing fitness (ln) (37 °C)
CCCAAGCAAUAUUACGGAGA | -4.12 ± 0.59 | 
AGUAAGCAAUAUUACGCCUC | -2.65 ± 1.1 | 
CUGUAGCAAUAUUACGUCUC |  | -2.71 ± 0.62
UGUAAGCAAUAUUACGCAUG | -1.95 ± 0.099 | 0.308 ± 0.14
CGGCAGCAAUAUUACGACUC | -0.739 ± 0.097 | -0.759 ± 0.1
AAAUAGCAAUAUUACGAACA | -0.981 ± 0.14 | -0.0486 ± 0.12
GGUAAGCAAUAUUACGCUGC | -2.94 ± 0.2 | -3.31 ± 0.52
GUGAAGCAAUAUUACGAGCC | -3.63 ± 1 | 
GUUUAGCAAUAUUACGUUAA | -1.87 ± 0.33 | -1.68 ± 0.24
UGGUAGCAAUAUUACGCCAC | -2.68 ± 0.62 | -2.63 ± 1.1
GGAAAGCAAUAUUACGGUUG | -4.49 ± 0.51 | 
CUACAGCAAUAUUACGGCCC | -3.44 ± 0.6 | -2.3 ± 0.62
UCUUAGCAAUAUUACGAUAC | -5.01 ± 1 | 
UGUGAGCAAUAUUACGUUCC | -1.07 ± 0.52 | -2.28 ± 0.78
GAUCAGCAAUAUUACGCAUU | -2.36 ± 0.26 | -1.05 ± 0.32
UUCAAGCAAUAUUACGCAAC | -3.92 ± 0.52 | 
CUGAAGCAAUAUUACGCGCC |  | -0.628 ± 0.56
AUUUAGCAAUAUUACGACAU | 0.163 ± 0.014 | 0.28 ± 0.033
GGCCAGCAAUAUUACGACCC | -2.9 ± 0.84 | 
UACUAGCAAUAUUACGGACC | -1.47 ± 0.5 | 
UAGCAGCAAUAUUACGCAUC | -4.15 ± 0.47 | -3.39 ± 0.26
CGUGAGCAAUAUUACGAUAA | -4.37 ± 0.39 | -2.68 ± 0.23
UCUGAGCAAUAUUACGAUAA | -3.77 ± 1 | 
CGUGAGCAAUAUUACGCCGU | -2.34 ± 0.52 | 

Quoted from the entries so far (3 entries):
Sequence | self-splicing fitness (ln) (30 °C) | self-splicing fitness (ln) (37 °C)
AAAUAGCAAUAUUACGAACA | -0.981 ± 0.14 | -0.0486 ± 0.12
GGUAAGCAAUAUUACGCUGC | -2.94 ± 0.2 | -3.31 ± 0.52
GUGAAGCAAUAUUACGAGCC | -3.63 ± 1 | 

More records follow.

Sequence | self-splicing fitness (ln) (30 °C) | self-splicing fitness (ln) (37 °C)
UUUUAGCAAUAUUACGCACC | -2.52 ± 0.8 | 
CUUGAGCAAUAUUACGCACC | -1.87 ± 0.52 | 
CCAGAGCAAUAUUACGACCA | -3.33 ± 0.53 | -2.76 ± 1.1
GCCAAGCAAUAUUACGGGCG | -1.36 ± 0.09 | -0.322 ± 0.11
UUCGAGCAAUAUUACGUAGC | -2.62 ± 1.1 | -2.99 ± 0.74
GCCUAGCAAUAUUACGCCGG | -3.68 ± 0.6 | 
CUGGAGCAAUAUUACGCGUA | -3.23 ± 1 | 
GACUAGCAAUAUUACGAGUC | -4.4 ± 0.51 | 
AUCGAGCAAUAUUACGUACG | -3.45 ± 0.6 | 
GCUUAGCAAUAUUACGCAAG | -4.01 ± 0.6 | 
AUCAAGCAAUAUUACGCUAC | -3.66 ± 1 | 
GUUAAGCAAUAUUACGAGAC | -4.77 ± 0.59 | -0.662 ± 0.25
AUUGAGCAAUAUUACGACCG | -1.81 ± 0.76 | -2.52 ± 0.77
AACGAGCAAUAUUACGUGAC | -5.36 ± 0.5 | 
UUUAAGCAAUAUUACGUACC |  | -0.234 ± 1.4
AGGAAGCAAUAUUACGGGGG | -4.49 ± 0.59 | -1.89 ± 0.36
CUCCAGCAAUAUUACGGCGG | -4.65 ± 0.28 | -3.1 ± 0.22
UCGGAGCAAUAUUACGUGAU | -3.75 ± 0.59 | 
CUUUAGCAAUAUUACGACUU | -3.28 ± 0.65 | 
GCAUAGCAAUAUUACGUAAA | -2.43 ± 0.074 | -1.05 ± 0.08
AGGAAGCAAUAUUACGUUCC | -2.96 ± 0.39 | -2.59 ± 0.48
GAUGAGCAAUAUUACGACGG | -3.56 ± 0.53 | -1.39 ± 0.63

Quoted at random: 2 records from the list.
Sequence | self-splicing fitness (ln) (30 °C) | self-splicing fitness (ln) (37 °C)
AACGAGCAAUAUUACGUGAC | -5.36 ± 0.5 | 
GCCAAGCAAUAUUACGGGCG | -1.36 ± 0.09 | -0.322 ± 0.11
